Test results: patent US9968609B2, “Sildenafil solutions and methods of making and using same” (Vigorous Solutions Ltd., priority 2014, dated 2018)
“Also recorded” adds a separate entry of the source. Where a name gives a salt, the structure may show the parent alone. At least one compound was matched to its structure with a doubt left.

Experiments:
Type in all cases: physicochemical
[1] = NMR analysis of sildenafil citrate after solubilisation/heating (Example 4); details: versus commercial sildenafil citrate in DMSO as control
[2] = Spectrophotometric absorbance at 228 nm before and after 0.22 micron filtration (Example 12)
Method: A UV-VIS Genesys 105 Thermo Scientific spectrophotometer was used for the assay. Samples were placed in a UV Kurette Halbmicro/UV Cuvette semi micro [Cat no: 759150] for reading.
Because the reference describes measurements at μg/ml concentrations, both the filtered and unfiltered 18 mg/ml solutions were diluted to 9 μg/ml and 12.5 μg/ml and measured again.

[3] = Stability of acetone free sildenafil citrate solutions (Example 11); details: similar compounds

Row | SMILES | chemical change of sildenafil citrate by dissolution/heating (NMR) [1] | Absorbance units (A) 228 n Mean ± σ filtered ([2]; 18 mg/ml in 70% ethanol (solution 9; Table 1), 0.22 micron filter, 3 samples) | Absorbance units (A) 228 n Mean ± σ unfiltered ([2]; 18 mg/ml in 70% ethanol (solution 9; Table 1), 3 samples) | Absorbance units (A) 228 n Mean ± σ unfiltered ([2]; diluted to 9 μg/ml, 3 samples) | Absorbance units (A) 228 n Mean ± σ unfiltered ([2]; diluted to 12.5 μg/ml, 6 samples) | Absorbance units (A) 228 n Mean ± σ filtered ([2]; filtered 18 mg/ml solution diluted to 9 μg/ml, 3 samples) | Absorbance units (A) 228 n Mean ± σ filtered ([2]; filtered 18 mg/ml solution diluted to 12.5 μg/ml, 6 samples) | yielding stable solutions with the same methodology [3]
1 | CCCc1nn(C)c2c(=O)[nH]c(-c3cc(S(=O)(=O)N4CCN(C)CC4)ccc3OCC)nc12 [sildenafil citrate] | unchanged by dissolution; also recorded: no chemical change | 3.813 ± 0.005 Absorbance units (A) | 3.807 ± 0.005 Absorbance units (A) | 0.201 ± 0.005 Absorbance units (A) | 0.202 ± 0.005 Absorbance units (A) | 0.197 ± 0.005 Absorbance units (A) | 0.206 ± 0.005 Absorbance units (A) | –
2 | CN1CC(=O)N2[C@H](c3ccc4c(c3)OCO4)c3[nH]c4ccccc4c3C[C@@H]2C1=O | – | – | – | – | – | – | – | not successful
3 | CCCc1nc(C)c2c(=O)[nH]c(-c3cc(S(=O)(=O)N4CCN(CC)CC4)ccc3OCC)nn12 | – | – | – | – | – | – | – | not successful
